Measured values as given in US20100150906A1.
Numbering of substitutions follows the chain as printed. These are yes or no findings as the source states them, for the method shown. Some results given as binding are weak or reduced against the parent protein; the word gives no strength.

Amino acid sequences for entries named in this document (tags omitted). Residues count along the entry.
UniProt P05067, residues 672-713: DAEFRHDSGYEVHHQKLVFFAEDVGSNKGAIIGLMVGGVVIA

Columns and labels:
[1] = molecular target: T1, peptide 14 of the first library (aa 14-22 of Aβ); assay: ELISA, biotinylated peptides of the third library on streptavidin plate, antibody 200 ng/ml, O.D. 405 nm [lower chart, Figure 3]
T1 sequence (peptide, biotinylated (position not stated)): HQKLVFFAE

[2] = molecular target: T2, peptide 13 of the first library (aa 13-21 of Aβ); assay: as above
T2 sequence (peptide, biotinylated (position not stated)): HHQKLVFFA

[3] = molecular target: T3, peptide 15 of the first library (aa 15-23 of Aβ); assay: as above
T3 sequence (peptide, biotinylated (position not stated)): QKLVFFAED

[4] = molecular target: T4, peptide p14-22 A22 of the third library (E22 to alanine); assay: as above
T4 sequence (peptide, biotinylated (position not stated)): HQKLVFFAA

[5] = molecular target: T5, peptide p13-21 G21 of the third library (A21 to glycine); assay: as above
T5 sequence (peptide, biotinylated (position not stated)): HHQKLVFFG

[6] = molecular target: T4, peptide p14-22 A22 of the third library (E22 to alanine); assay: ELISA on third peptide library, hC2 at 200 ng/ml
[7] = molecular target: T5, peptide p13-21 G21 of the third library (A21 to glycine); assay: ELISA on third peptide library, hC2 at 200 ng/ml
[8] = molecular target: T6, peptide 12 of the first library (aa 12-20 of Aβ); assay: ELISA, biotinylated peptide on streptavidin plate, antibody 200 ng/ml, O.D. 405 nm [upper chart, Figure 1]
T6 sequence (peptide, biotinylated (position not stated)): VHHQKLVFF

[9] = molecular target: T1, peptide 14 of the first library (aa 14-22 of Aβ); assay: as above
[10] = molecular target: T2, peptide 13 of the first library (aa 13-21 of Aβ); assay: as above
[11] = molecular target: T3, peptide 15 of the first library (aa 15-23 of Aβ); assay: as above
[12] = molecular target: peptide 16 of the first library (aa 16-24 of Aβ) (UniProt P05067); assay: as above
A14 = molecular target: T7, A14; assay: ELISA, biotinylated alanine-substituted peptides on streptavidin plate, antibody 200 ng/ml, O.D. 405 nm [middle chart, Figure 2]
T7 sequence (peptide, biotinylated): VHAQKLVFF

[13] = molecular target: T6, peptide 12 of the first library (aa 12-20 of Aβ); assay: as above
A13 = molecular target: T8, A13; assay: as above
T8 sequence (peptide, biotinylated): VAHQKLVFF

[14] = molecular target: T9, peptide A15 of the second library (aa 12-20, Q15 to alanine); assay: as above
T9 sequence (peptide, biotinylated (position not stated)): VHHAKLVFF

A12 = molecular target: T10, A12; assay: as above
T10 sequence (peptide, biotinylated): AHHQKLVFF

[15] = molecular target: T11, peptide A18 of the second library (aa 12-20, V18 to alanine); assay: as above
T11 sequence (peptide, biotinylated (position not stated)): VHHQKLAFF

[16] = molecular target: T9, peptide A15 of the second library (aa 12-20, Q15 to alanine); assay: ELISA on alanine-substituted biotinylated peptides, hC2 at 200 ng/ml
[17] = molecular target: T11, peptide A18 of the second library (aa 12-20, V18 to alanine); assay: as above
[18] = molecular target: T6, peptide 12 of the first library (aa 12-20 of Aβ); assay: ELISA on biotinylated peptides on streptavidin plates, hC2 at 200 ng/ml
[19] = molecular target: T1, peptide 14 of the first library (aa 14-22 of Aβ); assay: as above
[20] = molecular target: T2, peptide 13 of the first library (aa 13-21 of Aβ); assay: as above
[21] = molecular target: T3, peptide 15 of the first library (aa 15-23 of Aβ); assay: as above
[22] = molecular target: peptide 16 of the first library (aa 16-24 of Aβ) (UniProt P05067); assay: as above
[23] = molecular target: Amyloid Beta (antigen of the Amyloid Beta ELISA) (UniProt P05067); assay: Amyloid Beta ELISA, purified antibodies, A405 against antibody in ng/well
[24] = molecular target: Amyloid Beta (antigen of the Amyloid Beta ELISA) (UniProt P05067); assay: Amyloid Beta ELISA, conditioned medium of transient transfection, A405 against antibody in ng/well
[25] = molecular target: Amyloid Beta (antigen of the Amyloid Beta ELISA) (UniProt P05067); assay: Amyloid Beta ELISA, conditioned medium from transient transfection

Measured: binding

B1: humanized anti-human amyloid beta monoclonal antibody hC2 (antibody, human IgG4 S228P, kappa, V domains shown)
VH: EVQLVESGGGLVQPGGSLRLSCAASGFTFSSYGMSWVRQAPGKGLELVASINSNGGSTYYPDSVKGRFTISRDNAKNSLYLQMNSLRAEDTAVYYCASGDYWGQGTTVTVSS
VL: DIVMTQSPLSLPVTPGEPASISCRSSQSLVYSNGDTYLHWYLQKPGQSPQLLIYKVSNRFSGVPDRFSGSGSGTDFTLKISRVEAEDVGVYYCSQSTHVPWTFGQGTKVEIKR
binds: [1] | [2] | [3] | [4] | [5] | [6] | [7] | [8] | [9] | [10] | [11] | [12] | A14 | [13] | A13 | [14] | A12 | [15] | [16] | [17] | [18] | [19] | [20] | [21] | [22]

B2: humanized antibody C2 HuVH2/HuVK3 (antibody, human IgG4 S228P, kappa, V domains shown)
VH: B1 VH with L47W
VL: B1 VL with Q50K
binds: [23]

B3: chimeric C2 VH combined with mC2 VK-R (CDRL2 RVSNRFS) (antibody, V domains shown)
VH: EVQLVESGGGLVQPGGSLKLSCAASGFTFSSYGMSWVRQTPDKRLELVASINSNGGSTYYPDSVKGRFTISRDNAKNTLYLQMSSLKSEDTAMYYCASGDYWGQGSTLTVSS
VL: DVVMTQTPLSLPVSLGDQASISCRSSQSLVYSNGDTYLHWYLQKPGQSPKLLIYRVSNRFSGVPDRFSGSGSGTDFTLKISRVEAEDLGVYFCSQSTHVPWTFGGGTKLEIK
binds: [24] | [25]

B4: chimeric C2 VH combined with mC2 VK-S (CDRL2 KVSSRFS) (antibody, V domains shown)
VH: B3 VH
VL: B3 VL with R55K, N58S
binds: [24] | [25]
